Laboratory results as given in PubChem BioAssay AID602160 (Broad Institute, 2011).
This is one part of the list. Entries without a call are filed as inconclusive in the source.

Target: Plasmodium falciparum Hsp90 (expressed in yeast GR reporter strain)
Assay: GR-driven beta-gal reporter inhibition, PfHsp90 yeast strain – S. cerevisiae, beta-gal luminescence, dry powder samples, dose response (AID 602160)
Settings: at 26 µM (top of the series)

activity change, negative = inhibition: -41%
SMILES: CCOc1cc(S(=O)(=O)NC2CCCCCC2)ccc1F
